Experimental findings from patent publication US20160257744A1 are described below.

Protein sequences, listed by entry. Tags and fused reporters are not part of them. Residues count along the entry.
UniProt P05113, residues 20-134: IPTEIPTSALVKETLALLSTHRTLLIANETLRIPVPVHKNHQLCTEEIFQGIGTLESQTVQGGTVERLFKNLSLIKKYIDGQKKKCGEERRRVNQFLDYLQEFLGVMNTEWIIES

The assay addresses interleukin 5 (IL5) (human) (UniProt P05113). As to the kind of experiment: ELISA: biotinylated IL5 receptor α on immobilized IL5, streptavidin-HRP. In general terms: In an ELISA, binding on a coated surface is turned into a signal by an enzyme label.

No constants are given. Whether binding was seen depends on the method and setting. Some results given as binding are weak or reduced against the parent protein; the word gives no strength.

B1: IL5 receptor α (receptor, UniProt Q01344 21-335, looked up)
chain: DLLPDEKISLLPPVNFTIKVTGLAQVLLQWKPNPDQEQRNVNLEYQVKINAPKEDDYETRITESKCVTILHKGFSASVRTILQNDHSLLASSWASAELHAPPGSPGTSIVNLTCTTNTTEDNYSRLRSYQVSLHCTWLVGTDAPEDTQYFLYYRYGSWTEECQEYSKDTLGRNIACWFPRTFILSKGRDWLAVLVNGSSKHSAIRPFDQLFALHAIDQINPPLNVTAEIEGTRLSIQWEKPVSAFPIHCFDYEVKIHNTRNGYLQIEKLMTNAFISIIDDLSKYDVQVRAAVSSMCREAGLWSEWSQPIYVGNDE
As to B1, the binding entry was “binds”.
